Earlier results on 1 compound are cited in US20110201620A1, “2-(3-AMINOARYL) AMINO-4-ARYL-THIAZOLES AND THEIR USE AS C-KIT INHIBITORS” (AB SCIENCE, priority 2002, published 2011).

The data set relates to Human Kit exon 9. To be noted: read-out: Cell proliferation assay (IC50) Human Kit exon 9; cited from earlier work.

As for `Cc1ccc(NC(=O)c2ccc(CN3CCN(C)CC3)cc2)cc1Nc1nccc(-c2cccnc2)n1` [imatinib], the IC50 was about 200 nM.
